Test results from patent US20040191240A1, “Composition and method for nerve regeneration” (priority 2003, published 2004).
No constants are given. Whether binding was seen depends on the method and setting. Some binding calls cover weakened binding; strength is not graded here.

Sequences of proteins named here, by UniProt entry; tags and fusion partners are left off. A change or cut given only in a name is not applied to a line headed by its entry.
UniProt P08138: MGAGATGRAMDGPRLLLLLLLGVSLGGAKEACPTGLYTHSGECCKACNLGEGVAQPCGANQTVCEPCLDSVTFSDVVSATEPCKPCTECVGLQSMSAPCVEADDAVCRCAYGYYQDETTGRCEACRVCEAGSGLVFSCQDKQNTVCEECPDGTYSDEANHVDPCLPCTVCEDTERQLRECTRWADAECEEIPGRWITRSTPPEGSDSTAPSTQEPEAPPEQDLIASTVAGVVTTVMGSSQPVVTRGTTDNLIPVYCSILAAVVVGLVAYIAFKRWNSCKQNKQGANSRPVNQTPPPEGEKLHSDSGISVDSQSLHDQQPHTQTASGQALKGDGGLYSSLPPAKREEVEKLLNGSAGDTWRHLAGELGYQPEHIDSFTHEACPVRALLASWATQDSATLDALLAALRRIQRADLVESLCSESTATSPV

Biological target: amino-terminally FLAG-tagged human p75 (human) (UniProt P08138)
Test: p75 precipitated from transfected 293T cells, incubated with the RhoA-Rho GDI complex

binding: binds
Substance: prenylated RhoA complexed with Rho GDI (from UniProt P24406 1-190; P52565 1-204)
